Reference: article PMC8481542
Like-named read-outs stand apart in the source and are kept apart here. No constants are given. Whether binding was seen depends on the method and setting. In cells and extracts the contact can be indirect. Some binding calls cover weakened binding; strength is not graded here. For some assays here: Sequences can lack the tags named with a protein. Values belong to the molecule of their own block, whether it stands above or below them.

Key:
[1] = molecular target: T1, Pam17 (S. cerevisiae (endogenous in yeast mitochondria)) (UniProt P36147); experiment: cross-linking; TIM23 complex isolated from ^HisS*Tim23 mitochondria after import of buffer or Jac1^sfGFP; 2 mM DSS or 10 mM EDC 3 h on ice, or 2 mM SDA; LC-MS/MS (approach 1), corroborated by in organello approaches 2 and 3
T1 sequence: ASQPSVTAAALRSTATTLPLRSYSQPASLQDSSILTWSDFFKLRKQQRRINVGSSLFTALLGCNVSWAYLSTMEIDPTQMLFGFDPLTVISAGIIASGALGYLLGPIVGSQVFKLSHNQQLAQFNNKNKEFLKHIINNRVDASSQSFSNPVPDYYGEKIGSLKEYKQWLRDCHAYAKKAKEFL

[2] = molecular target: T2, Tim23 released from ^HisS*Tim23 by SUMOstar protease (S. cerevisiae) (UniProt P32897); experiment: as above
T2 sequence: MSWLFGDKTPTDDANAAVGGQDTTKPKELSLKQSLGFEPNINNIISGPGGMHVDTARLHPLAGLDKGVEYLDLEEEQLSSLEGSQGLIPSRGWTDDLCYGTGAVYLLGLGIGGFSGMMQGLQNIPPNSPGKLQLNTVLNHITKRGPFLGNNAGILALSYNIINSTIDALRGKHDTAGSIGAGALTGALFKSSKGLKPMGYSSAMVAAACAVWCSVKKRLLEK

[3] = molecular target: T3, Tim21 (S. cerevisiae (endogenous in yeast mitochondria)) (UniProt P53220); experiment: as above
T3 sequence: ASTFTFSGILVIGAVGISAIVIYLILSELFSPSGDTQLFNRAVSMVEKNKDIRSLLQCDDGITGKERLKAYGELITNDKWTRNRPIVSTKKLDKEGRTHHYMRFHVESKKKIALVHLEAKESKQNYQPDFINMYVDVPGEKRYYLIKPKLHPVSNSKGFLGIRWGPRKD

[4] = molecular target: T4, Tim50 (S. cerevisiae (endogenous in yeast mitochondria)) (UniProt Q02776); experiment: cross-linking; in organello (approach 2): ^HisS*Tim23 mitochondria with buffer or Jac1^sfGFP, 5 mM EDC/10 mM Sulfo NHS 3 h on ice in HN buffer; LC-MS/MS
T4 sequence: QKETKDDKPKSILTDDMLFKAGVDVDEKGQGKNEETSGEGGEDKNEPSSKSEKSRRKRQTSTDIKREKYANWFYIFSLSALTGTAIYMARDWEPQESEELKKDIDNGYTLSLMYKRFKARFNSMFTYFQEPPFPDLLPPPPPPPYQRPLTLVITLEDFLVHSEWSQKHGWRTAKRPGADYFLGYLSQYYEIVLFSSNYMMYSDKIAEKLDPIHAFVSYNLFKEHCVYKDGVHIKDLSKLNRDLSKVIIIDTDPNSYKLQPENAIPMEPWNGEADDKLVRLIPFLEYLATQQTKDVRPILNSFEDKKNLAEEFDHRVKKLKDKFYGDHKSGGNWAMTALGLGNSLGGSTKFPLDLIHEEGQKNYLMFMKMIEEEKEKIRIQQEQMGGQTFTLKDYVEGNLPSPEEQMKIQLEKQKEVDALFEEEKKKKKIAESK

[5] = molecular target: T3, Tim21 (S. cerevisiae (endogenous in yeast mitochondria)); experiment: cross-linking; TIM23 complex isolated from ^HisS*Tim23 and ^HisS*Tim23 tim21Δ mitochondria after Jac1^sfGFP import; 2 mM DSS; SDS-PAGE and immunoblotting
[6] = molecular target: T3, Tim21 (S. cerevisiae (endogenous in yeast mitochondria)); experiment: cross-linking; TIM23 complex isolated from ^HisS*Tim23 mitochondria after import of buffer or Jac1^sfGFP; 2 mM DSS or 10 mM EDC 3 h on ice, or 2 mM SDA; LC-MS/MS (approach 1), corroborated by in organello approaches 2 and 3; remark: listed apart in the source
[7] = molecular target: Tim21^FLAG (S. cerevisiae) (UniProt P53220); experiment: co-IP; mitochondria of yeast expressing a wild-type and a tagged copy; 1% digitonin; ALFA Selector ST or FLAG beads, 1 h 4 °C, SDS elution; western blot
[8] = molecular target: T2, Tim23 released from ^HisS*Tim23 by SUMOstar protease (S. cerevisiae); experiment: cross-linking; TIM23 complex isolated from ^HisS*Tim23 mitochondria after import of buffer or Jac1^sfGFP; 2 mM DSS or 10 mM EDC 3 h on ice, or 2 mM SDA; LC-MS/MS (approach 1), corroborated by in organello approaches 2 and 3; remark: listed apart in the source
[9] = molecular target: T5, Tim17^ALFA (S. cerevisiae), P39515; experiment: co-IP; mitochondria of yeast expressing a wild-type and a tagged copy; 1% digitonin; ALFA Selector ST or FLAG beads, 1 h 4 °C, SDS elution; western blot; settings: remark: other sources report otherwise
T5 chain: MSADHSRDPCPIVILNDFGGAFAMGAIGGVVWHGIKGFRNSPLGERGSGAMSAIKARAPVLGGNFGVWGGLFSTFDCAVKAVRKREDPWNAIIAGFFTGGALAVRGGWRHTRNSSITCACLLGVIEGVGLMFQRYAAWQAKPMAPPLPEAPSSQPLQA

[10] = molecular target: T6, Pam16^ALFA (S. cerevisiae), P42949; experiment: as above; settings: remark: other sources report otherwise
T6 chain: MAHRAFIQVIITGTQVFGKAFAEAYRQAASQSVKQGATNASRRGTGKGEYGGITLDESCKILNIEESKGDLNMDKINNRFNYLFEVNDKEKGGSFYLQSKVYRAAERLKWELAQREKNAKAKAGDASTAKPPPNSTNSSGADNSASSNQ

[11] = molecular target: T7, Pam16 (S. cerevisiae (endogenous in yeast mitochondria)) (UniProt P42949); experiment: cross-linking; TIM23 complex isolated from ^HisS*Tim23 mitochondria after import of buffer or Jac1^sfGFP; 2 mM DSS or 10 mM EDC 3 h on ice, or 2 mM SDA; LC-MS/MS (approach 1), corroborated by in organello approaches 2 and 3
T7 sequence: T6 chain

[12] = molecular target: Pam18^ALFA (S. cerevisiae) (UniProt Q07914); experiment: co-IP; mitochondria of yeast expressing a wild-type and a tagged copy; 1% digitonin; ALFA Selector ST or FLAG beads, 1 h 4 °C, SDS elution; western blot
[13] = molecular target: T8, Tim23^ALFA (S. cerevisiae), P32897; experiment: as above; settings: remark: other sources report otherwise
T8 chain: T2 sequence

Molecule: Tim17 (from UniProt P39515 1-158)
binding [1]: binds
binding [2]: binds
binding [3]: binds

B4: Tim17^ALFA, P39515 1-158 (protein)
chain: T5 chain
binding [9]: binds

B5: Pam16^ALFA, P42949 1-149 (protein)
chain: T6 chain
binding [10]: no binding

B6: Mgr2 (protein, UniProt Q02889 1-113)
chain: MPPLPQNYAQQQPSNWDKFKMGLMMGTTVGVCTGILFGGFAIATQGPGPDGVVRTLGKYIAGSAGTFGLFMSIGSIIRSDSESSPMSHPNLNLQQQARLEMWKLRAKYGIRKD
binding [8]: binds
binding [6]: binds

B7: Pam18 (protein, UniProt Q07914 1-168)
chain: MSSQSNTGNSIEAPQLPIPGQTNGSANVTVDGAGVNVGIQNGSQGQKTGMDLYFDQALNYMGEHPVITGFGAFLTLYFTAGAYKSISKGLNGGKSTTAFLKGGFDPKMNSKEALQILNLTENTLTKKKLKEVHRKIMLANHPDKGGSPFLATKINEAKDFLEKRGISK
binding [11]: binds
binding [8]: binds

B8: Pam18^ALFA (protein, UniProt Q07914 1-168)
chain: B7 chain
binding [12]: no binding

Continued, values first:

binding [4]: binds
binding [5]: binds
binding [6]: binds
B1: Tom22 (protein, UniProt P49334 1-152)
chain: MVELTEIKDDVVQLDEPQFSRNQAIVEEKASATNNDVVDDEDDSDSDFEDEFDENETLLDRIVALKDIVPPGKRQTISNFFGFTSSFVRNAFTKSGNLAWTLTTTALLLGVPLSLSILAEQQLIEMEKTFDLQSDANNILAQGEKDAAATAN

binding [7]: binds
B2: Tim21^FLAG (protein, UniProt P53220 71-239)
chain: T3 sequence

binding [8]: binds
B3: Tim21 (protein, UniProt P53220 71-239)
chain: T3 sequence

binding [8]: binds
Molecule: MFGLPQQEVSEEEKRAHQEQTEKTLKQAAYVAAFLWVSPMIWHLVKKQWK (peptide, UniProt P80967 1-50) [Tom5]

binding [13]: binds
B9: Tim23^ALFA, P32897 1-222 (protein)
chain: T2 sequence
